In PMC3514216, “SRC Homology 2 Domain Binding Sites in Insulin, IGF-1 and FGF receptor mediated signaling networks reveal an extensive potential interactome” (Cell Communication and Signaling : CCS, 2012):
Results are given in words; binding and its absence hold for the method and conditions named.

Sequences of proteins named here, by UniProt entry; tags and fusion partners are left off. Residues count along the entry.
UniProt P06241, residues 149-246: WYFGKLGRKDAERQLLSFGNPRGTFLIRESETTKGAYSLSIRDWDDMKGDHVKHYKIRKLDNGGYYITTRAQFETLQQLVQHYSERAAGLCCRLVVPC

Target: T1, IRS-1 (Y1229) phosphopeptide DLSApYASISFQ, SPOT array
T1 sequence (peptide, phosphotyrosine at position 5 (Y1229); membrane-bound): DLSAYASISFQ
Experiment: peptide or protein array; SPOT array of 192 membrane-bound 11-mer phosphotyrosine peptides; GST-SH2 0.25 uM in TBS-T with 5% nonfat milk and 1 mM DTT, 1.5 h, room temperature; anti-GST and Alexa-Fluor-680 secondary, Li-Cor Odyssey; array positive >3X the array mean, array negative <1X, indeterminate between; both purified

GST-Fyn SH2 domain (from UniProt P06241 149-246) (domain or fragment)
binding: no binding (tested: 0.25 uM)
